Measurements: PubChem BioAssay AID602346 (Broad Institute, 2012)
Among all 340,000 compounds or so, about 1,200 (0.35%) were called active. The inconclusive results got no clear call from the source; some entries with a clear call stand among them for comparison. Rule as the data show it: active = inhibition above about 50% (passing the limit was not always enough); inconclusive = no clear call, values can overlap the other calls; inactive = below about 31%. Where a SMILES comes first, the peptide text is derived from it. The star is where a group is joined. Boc = CC(C)(C)OC(=O)*; OtBu = CC(C)(C)O*

Test: blockers of Vif multimerization in cells – imaging, HEK293T, single point, primary screen (AID 602346)
Details: Vif self-association by quenched fluorescence, 24 h, at 7.49 µM, stronger effect = higher value

Row | Structure (SMILES) | inhibition
1 | Oc1[nH]c(=S)sc1/C=C1\C(c2ccccc2)=Nc2ccccc21 | active: 68.8%
2 | Cc1ccc(OCc2cc(C(=O)N3CCC(c4ccccc4Cl)C3)no2)cc1C (stereo unspecified) | inactive: -5.38%
3 | Cc1cc(OCc2cc(C(=O)NC(C)c3c(C)nn(C)c3C)no2)cc(C)c1Cl (stereo unspecified) | inactive: -1.88%
4 | CCC(=O)c1ccc(OCC(=O)OCC(=O)c2cc(C)n(C)c2C)cc1 | inconclusive: 36.2%
5 | CCCCOC(=O)Nc1nc2ccc(OC)cc2s1 | inconclusive: 27.1%
6 | CCCOC(=O)c1ccc(Oc2c(-c3ccc(OC)cc3O)n[nH]c2C)cc1 | inconclusive: 25.4%
7 | O=C(Cc1ccccc1)Nc1ccc2c(c1)C(=O)N(CC1CCCO1)C2=O (stereo unspecified) | active: 50.1%
8 | CCOC(=O)c1cnn(-c2ccccc2)c1NC(=O)c1ccccc1C | active: 53.9%
9 | CN(C)c1ccc(/C=C2\Oc3ccc(C#Cc4cccc(N)c4)cc3C2=O)cc1 | active: 62.6%
10 | CN1CCN(C2=C(NS(=O)(=O)c3cccs3)C(=O)c3ccccc3C2=O)CC1 | inactive: -1.36%
11 | COc1ccc(Br)cc1C(=O)Nc1ccc(C(=O)NCC(C)C)cc1 | inconclusive: 35.2%
12 | CC(=O)N1CCN(c2ccc(NC(=O)c3ccc([N+](=O)[O-])o3)cc2Cl)CC1 | active: 57.4%
13 | CN(C)CCCN(C(=O)c1ccco1)c1nc(-c2ccc(Cl)cc2)cs1 | inconclusive: 36.4%
14 | O=C(CCN1CCN(c2ccccc2)CC1)Nc1ccccc1F | inactive: -1.48%
15 | COc1ccc2nc(Nc3ccc4c(c3)OCO4)sc2c1 | active: 52.5%
16 | CCOc1ccccc1-n1nnnc1SCC(=O)NC(=O)Cc1ccccc1 | inactive: -10.4%
17 | C=CCSc1nc2sc3c(c2c(=O)n1-c1ccccc1)CCN(C)C3 | inactive: 6.45%
18 | COc1ccccc1NS(=O)(=O)c1cc([N+](=O)[O-])ccc1N/N=C/c1sc(N2CCOCC2)nc1-c1ccccc1 | inactive: 2.64%
19 | O=C(/C=C/c1ccc(O)c(O)c1)OCCc1ccccc1 | inconclusive: 30.7%
20 | C/C(=N\Nc1ccc([N+](=O)[O-])cc1)c1ccc(N2CCOCC2)cc1 | inconclusive: 46%
21 | COc1ccc(-c2nn(-c3ccccc3)cc2C(=O)Nc2nccs2)cc1OC | active: 52.9%
22 | C[C@@H]1CN([C@H](C)CO)C(=O)CCCn2nncc2CO[C@@H]1CN(C)S(=O)(=O)c1ccc2c(c1)OCCCO2 | inactive: -3.21%

Row | Structure (SMILES) | inhibition
23 | COc1c2occc2c(OC)c2c(=O)cc(C)oc12 | inconclusive: 48%
24 | Cc1ccccc1C(=O)Nc1ccc(N2CCOCC2)nc1 | active: 52.8%
25 | CCCS(=O)(=O)c1c(S(=O)(=O)CCC)c2cc(-c3ccncc3)ccn2c1C(=O)OC | inconclusive: 44.9%
26 | Cc1ccc(C(=O)OCC(=O)N2CCC(Cc3ccccc3)CC2)cc1N | inactive: 12.1%
27 | CC[C@H](C)C(=O)O[C@H]1CCC=C2C=C[C@H](C)[C@H](CC[C@@H]3C[C@@H](O)CC(=O)O3)[C@H]21 | inactive: -1.71%
28 | CCC(=O)OC1(C)C(=O)C2=COC(c3ccc(OC)cc3)=CC2=C(Br)C1=O (stereo unspecified) | inactive: -6.28%
29 | O=C(c1ccc(S(=O)(=O)N2CCC(c3nc4ccccc4[nH]3)CC2)cc1)N1CCOCC1 | inconclusive: 33.6%
30 | CCCCCCOC(=O)C(C#N)c1nc2ccccc2nc1N1CCOCC1 (stereo unspecified) | active: 182%
31 | N#C/C(=C(/O)CCl)c1nc2c(s1)CCc1ccccc1-2 | inconclusive: 38.2%
32 | COc1ccc(O)c(/C=N/n2c(-c3ccco3)csc2=Nc2cccnc2)c1 | inactive: 8.01%
33 | COc1ccc(NC(=O)COC(=O)c2cccc(S(=O)(=O)N(C)C)c2)cc1 | inactive: 16.7%
34 | CC(=O)c1ccccc1NC(=O)COC(=O)/C=C/c1ccc(OC(F)F)cc1 | inconclusive: 40.1%
35 | CC1CCCCC1NC(=O)CO/N=C/c1ccccc1OC(F)F (stereo unspecified) | active: 91.5%
36 | Cc1cc(OCC(=O)Nc2nnc(C3CC3)s2)ccc1C(C)C | inactive: 0.442%
37 | CSc1oc(-c2cccs2)nc1S(=O)(=O)c1ccccc1 | inconclusive: 43.2%
38 | COc1ccc(-n2nnc3c(SCc4ccccc4)ncnc32)cc1 | inconclusive: -4.95%
39 | COc1ccc(C(=O)/C=C/Nc2cccc(O)c2)cc1 | inconclusive: 38.7%
40 | CC1SC2(NC1=O)C1CC3CC(C1)CC2C3 (stereo unspecified) | inconclusive: 30.7%
41 | O=C(N/N=C/c1ccc(Cl)c(Cl)c1)c1ccc2nc[nH]c2c1 | inconclusive: 23.2%
42 | CC(NC(=O)C(CC(=O)OC(C)(C)C)NC(=O)OC(C)(C)C)C(N)=O (stereo unspecified) (Boc-Asp(OtBu)-Ala-NH2; configuration not given here) | active: 55%
43 | O=C(COc1ccc(Cl)cc1)NNC(=O)C(=O)NC1CCCCC1 | inconclusive: 21.1%
44 | Cn1c(C(=O)N/N=C/c2ccccc2)cc2ccccc21 | inactive: 13.2%

As a short view, part of the list above:
Row | Structure (SMILES) | inhibition
8 | CCOC(=O)c1cnn(-c2ccccc2)c1NC(=O)c1ccccc1C | active: 53.9%
9 | CN(C)c1ccc(/C=C2\Oc3ccc(C#Cc4cccc(N)c4)cc3C2=O)cc1 | active: 62.6%
10 | CN1CCN(C2=C(NS(=O)(=O)c3cccs3)C(=O)c3ccccc3C2=O)CC1 | inactive: -1.36%
11 | COc1ccc(Br)cc1C(=O)Nc1ccc(C(=O)NCC(C)C)cc1 | inconclusive: 35.2%
12 | CC(=O)N1CCN(c2ccc(NC(=O)c3ccc([N+](=O)[O-])o3)cc2Cl)CC1 | active: 57.4%
13 | CN(C)CCCN(C(=O)c1ccco1)c1nc(-c2ccc(Cl)cc2)cs1 | inconclusive: 36.4%
14 | O=C(CCN1CCN(c2ccccc2)CC1)Nc1ccccc1F | inactive: -1.48%
15 | COc1ccc2nc(Nc3ccc4c(c3)OCO4)sc2c1 | active: 52.5%
16 | CCOc1ccccc1-n1nnnc1SCC(=O)NC(=O)Cc1ccccc1 | inactive: -10.4%
17 | C=CCSc1nc2sc3c(c2c(=O)n1-c1ccccc1)CCN(C)C3 | inactive: 6.45%
18 | COc1ccccc1NS(=O)(=O)c1cc([N+](=O)[O-])ccc1N/N=C/c1sc(N2CCOCC2)nc1-c1ccccc1 | inactive: 2.64%
19 | O=C(/C=C/c1ccc(O)c(O)c1)OCCc1ccccc1 | inconclusive: 30.7%
20 | C/C(=N\Nc1ccc([N+](=O)[O-])cc1)c1ccc(N2CCOCC2)cc1 | inconclusive: 46%
21 | COc1ccc(-c2nn(-c3ccccc3)cc2C(=O)Nc2nccs2)cc1OC | active: 52.9%
22 | C[C@@H]1CN([C@H](C)CO)C(=O)CCCn2nncc2CO[C@@H]1CN(C)S(=O)(=O)c1ccc2c(c1)OCCCO2 | inactive: -3.21%
23 | COc1c2occc2c(OC)c2c(=O)cc(C)oc12 | inconclusive: 48%
24 | Cc1ccccc1C(=O)Nc1ccc(N2CCOCC2)nc1 | active: 52.8%
25 | CCCS(=O)(=O)c1c(S(=O)(=O)CCC)c2cc(-c3ccncc3)ccn2c1C(=O)OC | inconclusive: 44.9%
26 | Cc1ccc(C(=O)OCC(=O)N2CCC(Cc3ccccc3)CC2)cc1N | inactive: 12.1%

The list goes on.

Row | Structure (SMILES) | inhibition
45 | O=S(=O)(Cc1ccc(Cl)cc1)Oc1ccc(Cl)cc1 | inactive: 13.2%
46 | N/C(=N\OC(=O)c1cc(Br)ccc1Cl)c1ccccn1 | inconclusive: 31.9%
47 | C=CCn1c(N)c(C(=O)Nc2ccccc2OC)sc1=S | inactive: -2.03%
48 | C=CCOc1ccc2oc(=O)cc(C)c2c1 | inactive: -0.753%
49 | O=C(Cn1cnc2ccccc2c1=O)NCc1cccs1 | inconclusive: 44.9%
50 | COc1cccc(C(C(=O)NC2CCCC2)N(C(=O)c2ccco2)c2ccc(C(C)=O)cc2)c1OC (stereo unspecified) | inactive: -6.25%
51 | COc1ccc(NS(=O)(=O)c2cccc(C(=O)N/N=C/c3cn(-c4ccccc4)nc3-c3ccccc3)c2)cc1 | inactive: -2.75%
52 | CCCCc1cc(=O)oc2cc(C)cc(OCC(=O)N3CCC(C(=O)O)(c4ccccc4)CC3)c12 | inconclusive: 39.8%
53 | O=C1/C(=C\c2ccc3ccccc3c2)CCCc2ccccc21 | inactive: 3.22%
54 | CCCOc1ccc(-c2nn(-c3ccccc3)cc2/C=C2\SC(=S)N(C3CCS(=O)(=O)C3)C2=O)cc1 (stereo unspecified) | inconclusive: 25.9%
55 | Cc1c(C(=O)Nc2nccs2)oc2ccc(Br)cc12 | inactive: 12.4%
56 | Cc1cc(=O)n2c(C(=O)Nc3ccc(C(=O)OC(C)C)cc3)c(C(=O)Nc3ccccc3)sc2n1 | inconclusive: 47.4%
57 | C=CCN(c1ccccc1OC)S(=O)(=O)c1cccc(C(=O)NCc2ccco2)c1 | inconclusive: 30.4%
58 | O=[N+]([O-])c1ccc(/C=N/N=C/c2ccc([N+](=O)[O-])o2)o1 | active: 52.6%
59 | COc1ccc(N/C=C(\C=C\C#N)S(=O)(=O)c2ccccc2)cc1 | active: 86.7%
60 | Cc1ccc(C)c(C(=O)c2ccccc2NC(=O)c2ccccn2)c1 | inconclusive: 41%
61 | O=C(C=Cc1ccco1)c1ccco1 | inconclusive: 30.6%
62 | O=C(N=Nc1c(O)[nH]c2ccccc12)c1ccc2c(c1)OCO2 | inactive: 10.4%
63 | COc1cc([C@@H]2c3cc4c(cc3[C@@H](O[C@@H]3O[C@@H]5CO[C@@H](C)O[C@H]5[C@H](O)[C@H]3O)[C@H]3COC(=O)[C@H]23)OCO4)cc(OC)c1O | inconclusive: 31.4%
64 | Cc1nc(C(=O)O)cc2c1[nH]c1ccccc12 | inconclusive: 43.4%
65 | Cn1nc(C(F)(F)F)c(-c2cccc(C(F)(F)F)c2)c1NC(=O)Nc1ccc(F)cc1 | inactive: -9.23%
66 | N=c1c(C(=O)NCc2ccccc2)cc2c(=O)n3ccccc3nc2n1Cc1ccco1 | inactive: -5.87%

Row | Structure (SMILES) | inhibition
67 | Cc1ccc(N(C)S(=O)(=O)c2ccc(-c3ccc(=O)[nH]n3)s2)cc1C | inconclusive: 46.6%
68 | COC(=O)c1sccc1NC(=O)CSc1ccccc1NS(=O)(=O)c1ccccc1Cl | inactive: 0.527%
69 | COCCNC(=O)C(=O)N/N=C(\C)CC(=O)Nc1cccnc1 | inconclusive: 34.5%
70 | CC1CCc2cc(F)ccc2N1C(=O)c1cccs1 (stereo unspecified) | inactive: 6.59%
71 | CC(C)OP(=O)(OC(C)C)C(NC(=O)c1ccccc1)C(N)=O (stereo unspecified) | inconclusive: 47.4%
72 | COc1ccc(C(=O)c2cc([N+](=O)[O-])ccc2N2CCOCC2)cc1 | inconclusive: 41.9%
73 | CC[C@@]1(O)C(=O)OCc2c1cc1n(c2=O)Cc2cc3c(N)cccc3nc2-1 | inconclusive: 34.1%
74 | Cc1cc(C)c(NC(=O)COC(=O)C23CC4CC(CC(O)(C4)C2)C3)c(Cl)c1 | inconclusive: 32.1%
75 | CCOc1ccc2nc(SCC(=O)NC3CCS(=O)(=O)C3)[nH]c2c1 (stereo unspecified) | inconclusive: 30.5%
76 | CCN(Cc1nc(-c2ccc(OC)c(OC)c2)no1)C(=O)c1ccc2c(c1)OCO2 | inconclusive: 38.4%
77 | O=C(N/N=C(\c1ccccc1)c1ccccn1)c1cccc([N+](=O)[O-])c1 | inactive: -3.73%
78 | O=C(c1ccc(NC(=S)NCc2ccc(Cl)cc2)cc1)N1CCCCC1 | inconclusive: 17.4%
79 | Cc1cc(C(=O)OCc2nc3ccccc3s2)c(C)o1 | inconclusive: 17.3%
80 | COc1cc(/C=C2/C(=N)N3C=CSC3=NC2=O)ccc1OCCOc1ccc(NC(C)=O)cc1 | active: 60.6%
81 | COc1ccc(NC(=O)C2CCC2)cc1S(=O)(=O)N1CCOCC1 | inconclusive: 29.1%
82 | O=C(COc1ccc2ccccc2c1)Nc1ccc(Cc2ccncc2)cc1 | inactive: -6.72%
83 | Cc1cc(NCc2ccccn2)n2ncc(-c3ccc(Cl)cc3)c2n1 | inactive: -1.05%
84 | C/C(=N\NC(=O)c1ccccc1[N+](=O)[O-])c1c(O)cc(C)oc1=O | inactive: 9.34%
85 | Cc1cc(C)c(NC(=O)CSc2nc3ccc(NC(=O)CSc4nnnn4Cc4ccccc4)cc3s2)c(C)c1 | inactive: -10.1%
86 | Nc1nc2n[nH]nc2c(=O)[nH]1 | inconclusive: 35.9%
